Data from US10588879B2, “Treatment of age-related macular degeneration” (Aurin Biotech Inc., priority 2011, dated 2020).
For at least one compound, name, drawing or mass did not settle the structure.

Sequences of proteins named here, by UniProt entry; tags and fusion partners are left off. Residues count along the entry.
UniProt P27918, 28-469: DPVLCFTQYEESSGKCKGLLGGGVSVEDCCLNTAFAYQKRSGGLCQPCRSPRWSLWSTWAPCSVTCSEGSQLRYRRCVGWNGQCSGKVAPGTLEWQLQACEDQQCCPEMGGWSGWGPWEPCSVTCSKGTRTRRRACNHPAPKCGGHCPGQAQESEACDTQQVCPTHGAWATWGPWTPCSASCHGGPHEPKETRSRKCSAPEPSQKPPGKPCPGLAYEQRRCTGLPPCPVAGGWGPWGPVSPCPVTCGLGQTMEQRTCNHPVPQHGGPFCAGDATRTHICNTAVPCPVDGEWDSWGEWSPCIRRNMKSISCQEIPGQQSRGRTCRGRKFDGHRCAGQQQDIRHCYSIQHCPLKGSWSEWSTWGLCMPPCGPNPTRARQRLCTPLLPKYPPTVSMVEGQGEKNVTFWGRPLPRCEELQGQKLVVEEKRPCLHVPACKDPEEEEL
UniProt P00751, 26-764: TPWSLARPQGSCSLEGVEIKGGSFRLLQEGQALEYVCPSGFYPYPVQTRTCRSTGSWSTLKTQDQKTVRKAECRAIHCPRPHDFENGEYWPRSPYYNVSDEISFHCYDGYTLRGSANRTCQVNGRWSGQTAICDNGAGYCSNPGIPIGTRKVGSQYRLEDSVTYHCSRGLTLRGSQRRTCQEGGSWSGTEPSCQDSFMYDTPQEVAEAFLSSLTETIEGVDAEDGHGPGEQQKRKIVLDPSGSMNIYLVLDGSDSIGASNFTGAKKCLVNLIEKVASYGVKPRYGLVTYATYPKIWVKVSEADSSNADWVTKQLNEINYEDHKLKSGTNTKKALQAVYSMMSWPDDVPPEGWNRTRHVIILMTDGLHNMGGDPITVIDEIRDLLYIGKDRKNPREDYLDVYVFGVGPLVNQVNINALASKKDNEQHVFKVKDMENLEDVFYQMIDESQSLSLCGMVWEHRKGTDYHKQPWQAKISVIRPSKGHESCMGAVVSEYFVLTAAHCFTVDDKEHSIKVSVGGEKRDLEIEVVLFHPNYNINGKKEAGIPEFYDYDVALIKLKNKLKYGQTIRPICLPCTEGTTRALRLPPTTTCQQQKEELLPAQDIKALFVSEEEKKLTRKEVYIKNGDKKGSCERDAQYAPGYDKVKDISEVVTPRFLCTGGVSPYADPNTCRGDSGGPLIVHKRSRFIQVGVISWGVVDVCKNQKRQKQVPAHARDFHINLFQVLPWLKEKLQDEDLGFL
UniProt P10643, 23-843: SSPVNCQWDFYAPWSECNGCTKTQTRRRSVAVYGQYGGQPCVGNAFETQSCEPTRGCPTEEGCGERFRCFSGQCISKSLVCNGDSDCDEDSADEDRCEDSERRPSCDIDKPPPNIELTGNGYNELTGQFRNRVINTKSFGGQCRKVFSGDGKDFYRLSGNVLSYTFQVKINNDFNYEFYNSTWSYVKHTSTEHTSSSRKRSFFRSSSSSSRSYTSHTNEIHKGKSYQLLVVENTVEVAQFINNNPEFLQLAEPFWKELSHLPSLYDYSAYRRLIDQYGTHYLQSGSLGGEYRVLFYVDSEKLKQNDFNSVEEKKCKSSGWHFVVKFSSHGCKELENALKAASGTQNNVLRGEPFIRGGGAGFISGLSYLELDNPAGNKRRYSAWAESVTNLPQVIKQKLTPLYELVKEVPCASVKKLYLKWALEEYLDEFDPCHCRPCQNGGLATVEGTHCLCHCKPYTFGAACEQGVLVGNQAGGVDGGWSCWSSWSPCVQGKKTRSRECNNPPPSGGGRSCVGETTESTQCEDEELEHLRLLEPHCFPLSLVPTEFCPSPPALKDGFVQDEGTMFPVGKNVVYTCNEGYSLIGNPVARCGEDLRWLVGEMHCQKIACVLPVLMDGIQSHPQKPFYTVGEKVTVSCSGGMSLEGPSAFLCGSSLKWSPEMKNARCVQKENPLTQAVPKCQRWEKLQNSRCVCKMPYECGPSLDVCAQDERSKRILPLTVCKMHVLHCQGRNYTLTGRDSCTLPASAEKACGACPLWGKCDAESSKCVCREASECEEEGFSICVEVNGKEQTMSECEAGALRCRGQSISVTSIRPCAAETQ
UniProt P00746, 26-253: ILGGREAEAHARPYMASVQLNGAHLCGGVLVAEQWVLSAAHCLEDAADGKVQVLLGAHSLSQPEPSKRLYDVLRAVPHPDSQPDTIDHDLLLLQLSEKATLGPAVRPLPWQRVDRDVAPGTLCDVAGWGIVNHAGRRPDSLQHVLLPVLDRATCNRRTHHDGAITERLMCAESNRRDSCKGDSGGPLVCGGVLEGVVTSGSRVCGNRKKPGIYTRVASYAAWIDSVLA
UniProt P07357, 31-584: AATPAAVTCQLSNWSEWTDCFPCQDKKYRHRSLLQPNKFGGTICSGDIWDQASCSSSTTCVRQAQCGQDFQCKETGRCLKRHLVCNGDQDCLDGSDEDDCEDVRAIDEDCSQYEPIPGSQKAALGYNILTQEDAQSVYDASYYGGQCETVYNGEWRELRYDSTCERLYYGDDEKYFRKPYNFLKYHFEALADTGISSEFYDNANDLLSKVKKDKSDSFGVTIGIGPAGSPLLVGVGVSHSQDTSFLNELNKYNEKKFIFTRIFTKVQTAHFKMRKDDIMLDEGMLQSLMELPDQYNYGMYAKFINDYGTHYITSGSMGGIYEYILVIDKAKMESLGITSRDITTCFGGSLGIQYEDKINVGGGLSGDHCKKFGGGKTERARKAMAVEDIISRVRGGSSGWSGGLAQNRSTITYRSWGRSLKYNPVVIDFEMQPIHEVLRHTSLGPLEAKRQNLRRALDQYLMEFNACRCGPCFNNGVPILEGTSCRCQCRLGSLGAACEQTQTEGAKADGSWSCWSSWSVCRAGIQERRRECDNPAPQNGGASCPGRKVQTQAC
UniProt P07358, 55-591: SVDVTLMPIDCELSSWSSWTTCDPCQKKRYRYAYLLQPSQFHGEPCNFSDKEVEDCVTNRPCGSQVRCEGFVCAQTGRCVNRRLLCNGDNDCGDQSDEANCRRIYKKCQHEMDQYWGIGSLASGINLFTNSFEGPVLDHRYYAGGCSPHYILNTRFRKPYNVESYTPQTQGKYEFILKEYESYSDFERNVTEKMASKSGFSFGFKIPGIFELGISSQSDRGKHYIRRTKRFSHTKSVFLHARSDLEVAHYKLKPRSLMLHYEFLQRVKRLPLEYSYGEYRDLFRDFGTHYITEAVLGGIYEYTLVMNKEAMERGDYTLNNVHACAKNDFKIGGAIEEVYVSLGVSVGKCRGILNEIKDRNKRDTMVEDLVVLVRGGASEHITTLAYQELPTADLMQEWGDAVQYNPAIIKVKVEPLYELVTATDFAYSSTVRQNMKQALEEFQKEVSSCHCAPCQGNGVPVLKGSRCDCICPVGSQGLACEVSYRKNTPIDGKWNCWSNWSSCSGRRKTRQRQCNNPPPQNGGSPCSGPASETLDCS
UniProt P07360, 21-202: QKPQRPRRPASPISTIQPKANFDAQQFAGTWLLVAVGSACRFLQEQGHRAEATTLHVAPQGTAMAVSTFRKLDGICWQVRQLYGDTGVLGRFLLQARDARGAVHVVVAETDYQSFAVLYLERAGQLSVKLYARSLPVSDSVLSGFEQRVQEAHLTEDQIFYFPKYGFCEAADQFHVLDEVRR
UniProt P01024, 23-1663: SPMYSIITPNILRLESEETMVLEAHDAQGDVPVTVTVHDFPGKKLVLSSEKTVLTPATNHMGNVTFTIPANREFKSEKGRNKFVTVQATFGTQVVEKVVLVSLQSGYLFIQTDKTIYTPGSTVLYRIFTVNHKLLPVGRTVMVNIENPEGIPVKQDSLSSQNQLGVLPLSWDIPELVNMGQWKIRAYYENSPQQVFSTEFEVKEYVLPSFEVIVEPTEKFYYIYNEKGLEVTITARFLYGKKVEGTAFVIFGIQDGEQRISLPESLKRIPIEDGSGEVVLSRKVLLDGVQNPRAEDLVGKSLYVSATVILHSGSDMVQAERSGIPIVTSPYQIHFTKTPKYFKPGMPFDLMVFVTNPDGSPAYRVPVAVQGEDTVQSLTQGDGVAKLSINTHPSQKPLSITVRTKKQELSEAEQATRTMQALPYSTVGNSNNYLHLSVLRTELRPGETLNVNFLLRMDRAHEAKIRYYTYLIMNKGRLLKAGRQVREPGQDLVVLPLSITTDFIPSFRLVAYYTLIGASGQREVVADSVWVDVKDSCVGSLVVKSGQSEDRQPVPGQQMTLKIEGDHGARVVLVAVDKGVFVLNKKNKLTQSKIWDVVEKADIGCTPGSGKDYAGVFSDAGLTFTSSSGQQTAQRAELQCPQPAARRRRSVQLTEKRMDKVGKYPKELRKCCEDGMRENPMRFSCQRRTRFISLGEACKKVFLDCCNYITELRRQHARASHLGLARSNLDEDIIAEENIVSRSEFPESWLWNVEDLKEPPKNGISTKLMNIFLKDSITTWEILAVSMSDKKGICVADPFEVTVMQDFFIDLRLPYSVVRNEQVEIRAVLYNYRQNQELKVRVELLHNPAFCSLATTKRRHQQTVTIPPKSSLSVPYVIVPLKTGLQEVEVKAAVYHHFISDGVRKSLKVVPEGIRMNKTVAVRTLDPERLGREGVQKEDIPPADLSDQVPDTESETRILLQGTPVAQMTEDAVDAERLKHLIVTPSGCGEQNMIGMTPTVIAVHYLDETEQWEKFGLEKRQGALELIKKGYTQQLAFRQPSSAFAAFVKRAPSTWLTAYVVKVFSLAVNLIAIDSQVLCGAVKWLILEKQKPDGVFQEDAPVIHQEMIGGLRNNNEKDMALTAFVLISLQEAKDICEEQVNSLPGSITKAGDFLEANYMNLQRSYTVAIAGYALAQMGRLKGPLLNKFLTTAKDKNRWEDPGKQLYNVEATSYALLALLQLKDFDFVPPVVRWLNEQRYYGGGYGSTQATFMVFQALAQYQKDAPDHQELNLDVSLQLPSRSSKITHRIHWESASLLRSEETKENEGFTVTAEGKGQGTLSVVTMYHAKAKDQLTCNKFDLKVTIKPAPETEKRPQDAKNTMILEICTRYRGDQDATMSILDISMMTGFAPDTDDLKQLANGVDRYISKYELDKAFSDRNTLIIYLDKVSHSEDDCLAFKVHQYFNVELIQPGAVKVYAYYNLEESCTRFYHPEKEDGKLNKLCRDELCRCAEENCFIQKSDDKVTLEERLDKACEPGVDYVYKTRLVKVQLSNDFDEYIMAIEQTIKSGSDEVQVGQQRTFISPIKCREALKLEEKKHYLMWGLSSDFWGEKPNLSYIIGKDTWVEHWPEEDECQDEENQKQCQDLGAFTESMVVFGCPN

Columns and labels:
properdin = target: T1, properdin (Homo sapiens, UniProt P27918); test: Fluorometric binding of ATA to immobilized protein; conditions: protein 1-32 ng/mL; ATA 100 microgm/mL
T1 construct: purchased Quidel, San Diego, CA

Factor B = target: T2, Factor B (Homo sapiens, UniProt P00751); test: Fluorometric binding of ATA to immobilized protein; conditions: protein 32 ng/mL; ATA 100 microgm/mL
T2 construct: purchased Sigma, St. Louis, MO

C7 = target: T3, C7 (Homo sapiens, UniProt P10643); test: Fluorometric binding of ATA to immobilized protein; conditions: protein 32 ng/mL; ATA 100 microgm/mL
T3 construct: purchased Quidel, San Diego, CA

Factor D = target: T4, Factor D (Homo sapiens, UniProt P00746); test: Fluorometric binding of ATA to immobilized protein; conditions: protein 1-32 ng/mL; ATA 100 microgm/mL
T4 construct: purchased Quidel, San Diego, CA

C8 = target: T5, C8 (Homo sapiens, UniProt P07357+P07358+P07360); test: Fluorometric binding of ATA to immobilized protein; conditions: protein 32 ng/mL; ATA 100 microgm/mL
T5 construct: purchased Sigma, St. Louis, MO

C2 = target: T6, C2 (Homo sapiens, UniProt P06681); test: Fluorometric binding of ATA to immobilized protein; conditions: protein 32 ng/mL; ATA 100 microgm/mL
T6 construct: purchased Sino Biologicals Inc., Beijing, China
T6 sequence (P06681 21-752): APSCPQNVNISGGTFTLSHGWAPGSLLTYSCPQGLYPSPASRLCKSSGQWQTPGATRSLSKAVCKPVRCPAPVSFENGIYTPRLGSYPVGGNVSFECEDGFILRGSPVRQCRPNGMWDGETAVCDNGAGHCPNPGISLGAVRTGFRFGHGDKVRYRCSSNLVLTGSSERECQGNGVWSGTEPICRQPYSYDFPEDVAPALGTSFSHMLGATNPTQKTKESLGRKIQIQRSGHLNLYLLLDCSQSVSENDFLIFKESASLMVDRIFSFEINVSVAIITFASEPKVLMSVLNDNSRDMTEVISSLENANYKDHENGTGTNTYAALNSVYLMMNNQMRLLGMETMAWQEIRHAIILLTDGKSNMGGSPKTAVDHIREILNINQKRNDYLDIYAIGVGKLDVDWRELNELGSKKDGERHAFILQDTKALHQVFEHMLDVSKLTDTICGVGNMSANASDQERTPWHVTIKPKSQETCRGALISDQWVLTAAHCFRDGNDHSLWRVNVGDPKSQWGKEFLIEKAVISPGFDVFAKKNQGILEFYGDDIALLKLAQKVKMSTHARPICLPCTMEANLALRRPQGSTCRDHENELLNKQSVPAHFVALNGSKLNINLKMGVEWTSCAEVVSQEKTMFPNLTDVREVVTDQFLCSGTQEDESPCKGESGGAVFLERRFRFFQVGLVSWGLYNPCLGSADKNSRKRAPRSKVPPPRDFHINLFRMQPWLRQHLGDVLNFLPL

[1] = target: T7, C3 convertase of the alternative pathway (Homo sapiens, UniProt P00746); test: Western blot of alternative pathway activation by zymosan with C1 inhibitor; type: biochemical
T7 construct: from tissue

C3 = target: T8, C3 (Homo sapiens, UniProt P01024); test: Fluorometric binding of ATA to immobilized protein; conditions: protein 32 ng/mL; ATA 100 microgm/mL
T8 construct: purchased Sigma, St. Louis, MO

SMILES: O=C(O)C1=CC(=C(c2ccc(O)c(C(=O)O)c2)c2ccc(O)c(C(=O)O)c2)C=CC1=O [ATA, 5,5′-((3-carboxy-4-oxocyclohexa-2,5-dienn-1-ylidene)methylene)bis(2-hydroxybenzoic acid)]
- binding of ATA to properdin (properdin): no binding
- binding of ATA to Factor B (Factor B): did not bind
- binding of ATA to C7 (C7): did not bind
- binding of ATA to Factor D (Factor D): bound to both Factor D and C9 in a concentration dependent manner
- binding of ATA to C8 (C8): did not bind
- binding of ATA to C2 (C2): did not bind
- formation of C3 and C5 convertase bands (PC3bBb, PC3bBbC3b) ([1]; 5 microM ATA, human serum 15-fold dilution, C1 inhibitor, opsonized zymosan): Bands for PC3bBb and PC3bBbC3b did not form
- cleavage of C5 in residual serum ([1]; ATA and C1 inhibitor, zymosan, FIG. 5B lane 3): prevented cleavage of C5
- MAC formation components on membranes (C5b6 to C5b-9) ([1]; ATA and C1 inhibitor, zymosan, FIG. 5C lane 3): complete blockade appeared with no activation bands appearing on the membranes
- binding of ATA to C3 (C3): did not bind
